Test results as given in article PMC7562919.

By UniProt entry, the sequences of proteins in these tests, tags left out. Where a name states a change or a piece, a line headed by the entry shows the natural chain unless it says otherwise.
UniProt Q39255: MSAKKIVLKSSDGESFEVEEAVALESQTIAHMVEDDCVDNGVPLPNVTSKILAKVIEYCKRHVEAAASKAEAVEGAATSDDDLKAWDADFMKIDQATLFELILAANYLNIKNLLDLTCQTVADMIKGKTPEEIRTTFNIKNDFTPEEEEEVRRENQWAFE
UniProt P51818: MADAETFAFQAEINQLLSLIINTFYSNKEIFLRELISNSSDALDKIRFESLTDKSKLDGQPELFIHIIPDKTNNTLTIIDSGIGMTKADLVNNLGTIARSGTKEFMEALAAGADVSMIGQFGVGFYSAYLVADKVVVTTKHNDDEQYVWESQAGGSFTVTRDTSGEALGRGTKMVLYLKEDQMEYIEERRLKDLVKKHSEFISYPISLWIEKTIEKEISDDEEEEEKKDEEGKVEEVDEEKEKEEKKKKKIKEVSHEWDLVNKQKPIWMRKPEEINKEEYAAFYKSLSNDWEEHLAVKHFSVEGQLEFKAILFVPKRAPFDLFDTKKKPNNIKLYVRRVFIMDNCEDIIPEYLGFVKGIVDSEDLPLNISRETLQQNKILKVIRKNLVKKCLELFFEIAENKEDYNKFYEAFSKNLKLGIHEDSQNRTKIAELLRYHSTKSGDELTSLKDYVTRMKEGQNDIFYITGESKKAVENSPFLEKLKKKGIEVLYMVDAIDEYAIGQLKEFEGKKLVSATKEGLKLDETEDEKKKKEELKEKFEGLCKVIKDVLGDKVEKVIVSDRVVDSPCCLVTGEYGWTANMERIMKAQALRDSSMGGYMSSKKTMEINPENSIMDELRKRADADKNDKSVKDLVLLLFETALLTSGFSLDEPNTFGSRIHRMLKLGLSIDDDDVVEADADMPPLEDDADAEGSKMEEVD
UniProt Q4PT31: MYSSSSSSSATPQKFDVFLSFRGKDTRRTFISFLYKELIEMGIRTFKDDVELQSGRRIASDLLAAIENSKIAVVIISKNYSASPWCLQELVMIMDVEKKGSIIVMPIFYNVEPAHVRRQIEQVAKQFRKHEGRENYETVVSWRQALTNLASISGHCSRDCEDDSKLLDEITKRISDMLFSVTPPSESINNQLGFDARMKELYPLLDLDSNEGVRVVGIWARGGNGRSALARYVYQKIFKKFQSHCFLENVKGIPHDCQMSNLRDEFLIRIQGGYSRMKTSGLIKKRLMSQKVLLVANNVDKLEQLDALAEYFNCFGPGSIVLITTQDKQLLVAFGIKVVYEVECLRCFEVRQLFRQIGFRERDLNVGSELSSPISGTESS

How the values were obtained:
[1] = molecular target: ASK1-FLAGTEVZZ (Arabidopsis thaliana) (UniProt Q39255); assay: co-IP; FLAGTEVZZ-tagged bait co-expressed with a FLAG-tagged partner in N. benthamiana leaves, 48 h; how the bait was precipitated is not told
[2] = molecular target: HA-FLAG-SOC3 (Arabidopsis thaliana) (UniProt F4I901); assay: co-IP; proteins transiently co-expressed in N. benthamiana leaves, harvested after 48 h; GTEN buffer (25 mM Tris-HCl pH 7.5, 150 mM NaCl, 1 mM EDTA, 0.15% NP-40, 10 mM DTT); FLAG-tagged protein precipitated with anti-FLAG M2 beads, 3 h at 4 °C; western blot
[3] = molecular target: T1, SUSA2-FLAG (Arabidopsis thaliana) (UniProt Q9FKT0); assay: co-IP; Arabidopsis stable transgenic lines carrying both transgenes; for CHS1-HA and TN2-HA in Col-0, hsp90.3-1 and sgt1b backgrounds
T1 sequence: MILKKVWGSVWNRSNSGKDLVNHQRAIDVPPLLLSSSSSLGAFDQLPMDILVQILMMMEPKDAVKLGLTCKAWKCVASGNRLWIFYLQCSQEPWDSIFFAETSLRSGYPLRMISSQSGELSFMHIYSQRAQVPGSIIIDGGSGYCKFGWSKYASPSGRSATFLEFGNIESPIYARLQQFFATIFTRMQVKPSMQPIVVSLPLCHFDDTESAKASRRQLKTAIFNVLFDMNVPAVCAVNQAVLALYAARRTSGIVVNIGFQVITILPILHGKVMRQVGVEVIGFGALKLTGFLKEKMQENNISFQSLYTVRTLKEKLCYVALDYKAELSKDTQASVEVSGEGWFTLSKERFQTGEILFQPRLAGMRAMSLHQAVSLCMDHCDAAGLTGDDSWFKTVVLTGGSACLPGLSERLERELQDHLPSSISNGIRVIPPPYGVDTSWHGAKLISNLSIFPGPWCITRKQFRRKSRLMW

Question: For HA-FLAG-SOC3 (from UniProt F4I901), which binding [1] is on record?
Answer: binds

Question: How did the binding [2] turn out when HSP90.3-HA (from UniProt P51818 1-699) was run?
Answer: binds

Question: For TN2-HA (from UniProt Q4PT31), which binding [3] is on record?
Answer: binds

No constants are given. Whether binding was seen depends on the method and setting. In cells and extracts the contact can be indirect. A result given as binding can be weak or reduced; the word gives no strength. For part of these data: Sequences can lack the tags named with a protein.
